Laboratory results taken from paper PMC2483295.
These are yes or no findings as the source states them, for the method shown. Some results given as binding are weak or reduced against the parent protein; the word gives no strength. Where a sequence is shown, tags or fusion partners need not be part of it.

How the values were obtained:
[1] = target: T1, phyA-BD (Arabidopsis) (UniProt P14712); experiment: two-hybrid; yeast AH109, growth on L-W-H- plates with 1 mM 3-aminotriazole and 10 µM PCB, 3 d in 1 µmol m^-2 s^-1 red light (Pfr) or 13 µmol m^-2 s^-1 far-red light (Pr)
T1 sequence: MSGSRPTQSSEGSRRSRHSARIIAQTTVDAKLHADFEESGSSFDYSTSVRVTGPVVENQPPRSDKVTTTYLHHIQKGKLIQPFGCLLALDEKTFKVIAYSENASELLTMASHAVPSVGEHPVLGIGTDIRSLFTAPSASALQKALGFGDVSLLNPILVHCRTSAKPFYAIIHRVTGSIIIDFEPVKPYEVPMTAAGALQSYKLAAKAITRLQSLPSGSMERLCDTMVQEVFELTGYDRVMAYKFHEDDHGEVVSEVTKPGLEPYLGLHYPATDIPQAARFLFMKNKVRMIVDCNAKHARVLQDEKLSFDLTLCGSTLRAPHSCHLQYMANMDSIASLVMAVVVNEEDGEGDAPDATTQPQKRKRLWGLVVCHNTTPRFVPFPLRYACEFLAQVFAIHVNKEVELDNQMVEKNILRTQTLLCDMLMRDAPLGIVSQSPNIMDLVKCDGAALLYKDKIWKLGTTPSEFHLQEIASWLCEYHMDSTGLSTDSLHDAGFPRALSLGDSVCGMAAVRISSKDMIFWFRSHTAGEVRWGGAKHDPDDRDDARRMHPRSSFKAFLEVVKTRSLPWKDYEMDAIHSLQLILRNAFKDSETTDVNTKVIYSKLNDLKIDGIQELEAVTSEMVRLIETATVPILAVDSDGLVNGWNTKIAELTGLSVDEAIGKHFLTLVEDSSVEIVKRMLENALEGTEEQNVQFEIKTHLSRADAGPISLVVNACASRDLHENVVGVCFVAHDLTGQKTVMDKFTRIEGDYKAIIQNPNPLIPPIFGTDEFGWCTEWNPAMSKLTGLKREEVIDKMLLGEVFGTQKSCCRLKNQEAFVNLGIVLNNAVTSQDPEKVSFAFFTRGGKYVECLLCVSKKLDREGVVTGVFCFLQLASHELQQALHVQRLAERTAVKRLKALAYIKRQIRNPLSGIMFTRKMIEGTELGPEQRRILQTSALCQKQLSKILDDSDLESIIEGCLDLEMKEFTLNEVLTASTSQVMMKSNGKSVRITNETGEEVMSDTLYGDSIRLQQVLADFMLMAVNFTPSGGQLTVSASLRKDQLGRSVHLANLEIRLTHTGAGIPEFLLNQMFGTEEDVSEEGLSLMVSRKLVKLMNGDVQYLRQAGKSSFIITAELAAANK

[2] = target: T1, phyA-BD (Arabidopsis); experiment: two-hybrid; yeast Y187, β-galactosidase activity (Miller units); cultures with 10 µM PCB, 5 min red light pulse (12 µmol m^-2 s^-1), then 240 min dark; 5 min far-red pulse given 0, 60, 120 or 240 min after the red pulse

B1: AD-FHY1 (protein, UniProt Q8S4Q6 1-202)
chain: MPEVEVDNNNEKPSEINSFHHMIISSSKNVLKMEEVEVSKKRKFQTDQSDELSLLPLSKHTCFANVACSENTNGNSEIDTEYSMSSYVNSTTSMECNNDIEMKEESSGSCGEDKMISFESHLDYIYGTQNLEDFSEKVIENILYLDEQEEEEEDAKGCSSNAAKFVLSSGRWTVNQDDSTLHETKKPTIDQEFEQYFSTLML
binding [1]: binds
binding [2]: binds
